Assay results taken from article PMC6377682.
No constants are given. Whether binding was seen depends on the method and setting. Some binding calls cover weakened binding; strength is not graded here.

Protein sequences, listed by entry. Tags and fused reporters are not part of them. Residues count along the entry.
UniProt P62140, residues 6-327: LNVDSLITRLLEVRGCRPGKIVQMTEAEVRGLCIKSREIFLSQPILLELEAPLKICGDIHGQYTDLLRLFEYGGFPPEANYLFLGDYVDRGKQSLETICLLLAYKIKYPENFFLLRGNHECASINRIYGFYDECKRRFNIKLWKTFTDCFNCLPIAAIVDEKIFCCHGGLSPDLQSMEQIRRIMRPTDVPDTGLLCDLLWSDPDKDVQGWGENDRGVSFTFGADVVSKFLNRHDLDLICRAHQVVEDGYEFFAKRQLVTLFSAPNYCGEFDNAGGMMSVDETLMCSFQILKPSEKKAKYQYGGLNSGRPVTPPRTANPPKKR

Biological target: human PP1β^6-327 (human) (UniProt P62140)
Experiment: BLI; HIS tagged PP1α, PP1β or PP1γ1 (50 μg/ml) immobilised on Ni-NTA biosensors, ASPP in solution in kinetics buffer, 25 °C, 1000 rpm; global fit 1:1 model; apparent KD; both purified

B1: human iASPP^621-828 (domain or fragment, UniProt Q8WUF5 621-828)
chain: RRARLNPLVLLLDAALTGELEVVQQAVKEMNDPSQPNEEGITALHNAICGANYSIVDFLITAGANVNSPDSHGWTPLHCAASCNDTVICMALVQHGAAIFATTLSDGATAFEKCDPYREGYADCATYLADVEQSMGLMNSGAVYALWDYSAEFGDELSFREGESVTVLRRDGPEETDWWWAALHGQEGYVPRNYFGLFPRVKPQRSKV
In the case of B1, the binding is reported as “binds”.
